Source: PubChem BioAssay AID504847 (National Center for Advancing Translational Sciences (NCATS), 2011)
In all, about 400,000 compounds went through this assay and about 3,700 (0.93%) were called active. This list was built around the results that the source calls inconclusive (neither active nor inactive); the mix of calls is not that of the screen. Calls follow the shape of the dose curve; as a rule, active = well fitted inhibition curve with a large enough effect; inconclusive = small, poorly fitted or top-dose-only effect, or another doubt; inactive = no such curve, though single readings can be large or run the other way. A potency beside an inconclusive call is a rough fit, not a confirmed value.

Sequences of proteins named here, by UniProt entry; tags and fusion partners are left off. A change or cut given only in a name is not applied to a line headed by its entry.
UniProt P11473: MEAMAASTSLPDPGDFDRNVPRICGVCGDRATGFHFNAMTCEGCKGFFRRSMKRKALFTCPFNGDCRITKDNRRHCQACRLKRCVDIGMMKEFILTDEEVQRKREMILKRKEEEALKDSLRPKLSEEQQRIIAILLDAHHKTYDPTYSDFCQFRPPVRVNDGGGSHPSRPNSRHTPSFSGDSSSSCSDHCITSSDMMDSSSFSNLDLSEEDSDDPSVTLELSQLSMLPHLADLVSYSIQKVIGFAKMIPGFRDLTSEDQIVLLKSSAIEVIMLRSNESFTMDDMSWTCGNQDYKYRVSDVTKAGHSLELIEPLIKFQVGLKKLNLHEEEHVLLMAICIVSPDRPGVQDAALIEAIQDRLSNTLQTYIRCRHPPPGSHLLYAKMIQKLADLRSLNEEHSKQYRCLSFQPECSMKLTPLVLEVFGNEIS

Molecular target: Vitamin D3 receptor (Homo sapiens) (UniProt P11473)
Assay: Inhibitors of the vitamin D receptor (VDR): qHTS
Conditions: VDR-SRC2-3 peptide fluorescence polarization, 2 h; max response, negative = inhibition: stronger effect = lower value
How it was run: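 VDR–SRC2-3 interaction, FP format. Cmpds 23 nl via pintool, brief spin, 2 h ambient incubation.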
% is scaled to controls: 0 for no effect and ±100 for the full control effect; potency is read from the fitted curve at half-maximal effect.

Potency, inconclusive:
COc1cccc(OCc2nnc(SCC(=O)N3c4ccccc4Sc4ccc(Cl)cc43)o2)c1 79.4 µM [inhibitor, partial curve, poor fit]
Cc1ccn2cc(-c3cccc(S(=O)(=O)N4CCCCC4)c3)nc2c1 1 µM [inhibitor, full curve, poor fit]
CCCN1CNc2c(c(=O)[nH]c(=S)n2CCc2ccc(C)c(C)c2)C1 79.4 µM [inhibitor, single point]
CCC(=O)N[C@@H]1CC(C(C)(C)NC(=O)CC)CC=C1C (stereo partly specified) 44.7 µM [inhibitor, partial curve, poor fit]
COC(=O)C1=C(C)N(Cc2ccccc2)C(=O)/C1=C\c1ccco1 44.7 µM [inhibitor, partial curve, poor fit]
O=C1c2ccccc2NC(c2ccc(-c3cccs3)o2)N1O (stereo unspecified) 89.1 µM [inhibitor, single point]
O=C(Nc1ccc(F)c(Cl)c1)c1cccnc1 10 µM [inhibitor, partial curve, poor fit]
O=C(CCc1nc2ccccc2s1)NCc1ccccc1F 44.7 µM [inhibitor, partial curve, poor fit]
O=C(Oc1c(Br)cc(C(=S)N2CCOCC2)cc1Br)c1ccc(Cl)cc1 50.1 µM [inhibitor, partial curve, poor fit]
Cn1cc(C2N3CC4(C)CN2CC(C)(C3)C4=O)c2ccccc21 (stereo unspecified) 79.4 µM [inhibitor, single point]
S=c1[nH]c(-c2ccccc2)cn1/N=C/c1ccc(Br)cc1 89.1 µM [inhibitor, partial curve, poor fit]
CC(/C=C1\SC(=S)N(CCCC(=O)Nc2ccc(C(=O)O)c(O)c2)C1=O)=C\c1ccccc1 70.8 µM [inhibitor, partial curve, poor fit]
CCOc1ccc(NC(=O)C(c2ccccn2)N(C(=O)CCl)c2ccc(F)cc2)cc1 (stereo unspecified) 70.8 µM [inhibitor, partial curve, poor fit]
Cn1cccc1C(=O)N1CCC[C@@]2(CCN(c3cccc(-c4ccccc4)c3)C2)C1 39.8 µM [inhibitor, partial curve]
Cn1cc(Cl)c(C(=O)NNC(=S)NCc2ccco2)n1 31.6 µM [inhibitor, partial curve, poor fit]
CC(Oc1ccc(F)cc1)C(=O)Nc1cccc(-c2nn[nH]n2)c1 (stereo unspecified) 89.1 µM [inhibitor, partial curve, poor fit]
CC(C)c1ccccc1NC(=O)COC(=O)/C=C/c1cccc([N+](=O)[O-])c1 39.8 µM [inhibitor, single point]
CC1=NN(C(=O)Cn2nc([N+](=O)[O-])cc2C)C(O)(C(F)(F)F)C1 (stereo unspecified) 0.631 µM [inhibitor, full curve, poor fit]
CCCCC(CC)C(=O)Nc1ccc(C)c(O)c1 (stereo unspecified) 89.1 µM [inhibitor, single point]
CN(CC(=O)Nc1cccc(F)c1)C(=O)CNS(=O)(=O)c1ccc(N(C)C)c([N+](=O)[O-])c1 89.1 µM [inhibitor, single point]
COc1ccccc1CNc1nc(C)c(C(=O)N(C)C)s1 79.4 µM [inhibitor, partial curve, poor fit]

Some of these compounds in order of molecular weight, rising.
Potency, inconclusive:
COc1ccccc1CNc1nc(C)c(C(=O)N(C)C)s1 79.4 µM [inhibitor, partial curve, poor fit]
Cc1ccn2cc(-c3cccc(S(=O)(=O)N4CCCCC4)c3)nc2c1 1 µM [inhibitor, full curve, poor fit]
COc1cccc(OCc2nnc(SCC(=O)N3c4ccccc4Sc4ccc(Cl)cc43)o2)c1 79.4 µM [inhibitor, partial curve, poor fit]

Following part:

Potency, active:
CCCc1[nH][nH]c(=O)c1C(c1ccc(Br)cc1)C(C#N)C#N (stereo unspecified) 79.4 µM
CCOc1cc(/C=C2/C(=O)ON=C2C)cc(Br)c1O 56.2 µM
O=C(COC(=O)C1CCC(=O)N1)Nc1ccccc1Br (stereo unspecified) 22.4 µM
O=C1/C(=C/c2ccccc2[N+](=O)[O-])COc2ccccc21 22.4 µM
Cc1cc(C)nc(SSc2nc(C)cc(C)n2)n1 7.08 µM
Fc1cc(F)c(F)c(SCCc2ccncc2)c1F 50.1 µM
O=C(/C=C/c1ccc2c(c1)OCO2)c1ccccn1 79.4 µM
CC1(C)CCC2=C(O1)c1ccccc1C(=O)C2=O 8.91 µM
N[C@@H](Cc1cc(-c2ccc(Cl)cc2Cl)cc(CP(=O)(O)O)c1O)C(=O)O 44.7 µM

Max response, negative = inhibition, inactive:
CC1CCCC/C1=N/Nc1ccc([N+](=O)[O-])cc1[N+](=O)[O-] (stereo unspecified) -13.4%
COc1ccc(N2CCN(C(=O)c3cc([N+](=O)[O-])ccc3N3CCN(CCO)CC3)CC2)cc1 -8.37%
COc1ccc2c(c1)c1c(c(=O)n(CCc3ccccc3)c(=O)n1Cc1ccc(F)cc1)n2C 6.33%
COc1ccc(NC(=O)c2c(-c3ccc(C)cc3)nnc3ccccc23)c(OC)c1 10.6%
COC(=O)C(C)(C)ONC(=O)Nc1ccccc1 0.483%
Cc1ccc2c(=O)cc(C(=O)Nc3cccc(C(F)(F)F)c3)oc2c1C -2.82%
Nc1ccccc1C#Cc1ccc([N+](=O)[O-])cc1 -11%
Cc1cc(SCC(=O)NC(=O)NCc2ccco2)nc2ccccc12 -1.82%
O=C1C(Br)=Cc2cccc3cccc1c23 2.76%
c1cc2c(cc1C1=NNC(=NC3CC3)SC1)OCCO2 -12.5%
CC(=O)N1CCc2c(sc3nc(SCC(C)C)n(-c4ccc(F)c(Cl)c4)c(=O)c23)C1 -5.65%
Cc1cn2c(=O)cc(COC(=O)COc3ccccc3C)nc2s1 0.781%
CCCCC/C=C\C\C=C/C=C/C=C/[C@@H](SCC(N)C(=O)O)[C@@H](O)CCCC(=O)O (stereo partly specified) 7.4%
CCOc1cccc(C(=O)NC(=S)NCc2cccnc2)c1 -4.56%
Cc1cccc(N2CCN(C(=O)CCn3c(=O)c4cccn4c4cccnc43)CC2C)c1 (stereo unspecified) -1.09%
O=C1C2C3C=CC(CC3)C2C(=O)N1c1ccc([N+](=O)[O-])cc1 (stereo unspecified) -8.11%
